Source: publication PMC5157023

Chains of the proteins cited; added tags and fusions are not shown. Lines headed by an entry give the natural chain unless they say otherwise; changes in a name come on top.
UniProt O60506: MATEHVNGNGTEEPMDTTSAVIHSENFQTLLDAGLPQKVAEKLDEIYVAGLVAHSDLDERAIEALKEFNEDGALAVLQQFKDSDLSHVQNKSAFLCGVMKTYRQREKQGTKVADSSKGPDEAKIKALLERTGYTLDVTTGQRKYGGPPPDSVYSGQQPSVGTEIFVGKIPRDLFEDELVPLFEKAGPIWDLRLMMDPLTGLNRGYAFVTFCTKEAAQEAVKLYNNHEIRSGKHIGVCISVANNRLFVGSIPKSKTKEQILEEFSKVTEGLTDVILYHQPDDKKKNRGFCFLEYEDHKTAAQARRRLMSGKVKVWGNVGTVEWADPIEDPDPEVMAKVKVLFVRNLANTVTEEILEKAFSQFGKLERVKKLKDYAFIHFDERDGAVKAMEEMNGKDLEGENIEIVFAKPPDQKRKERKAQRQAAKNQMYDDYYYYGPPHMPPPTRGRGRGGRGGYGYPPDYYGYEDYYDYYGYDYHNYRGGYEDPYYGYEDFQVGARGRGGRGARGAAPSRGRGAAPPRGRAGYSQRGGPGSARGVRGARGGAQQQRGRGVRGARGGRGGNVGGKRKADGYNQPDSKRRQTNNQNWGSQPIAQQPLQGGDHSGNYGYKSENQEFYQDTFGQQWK
UniProt Q13263: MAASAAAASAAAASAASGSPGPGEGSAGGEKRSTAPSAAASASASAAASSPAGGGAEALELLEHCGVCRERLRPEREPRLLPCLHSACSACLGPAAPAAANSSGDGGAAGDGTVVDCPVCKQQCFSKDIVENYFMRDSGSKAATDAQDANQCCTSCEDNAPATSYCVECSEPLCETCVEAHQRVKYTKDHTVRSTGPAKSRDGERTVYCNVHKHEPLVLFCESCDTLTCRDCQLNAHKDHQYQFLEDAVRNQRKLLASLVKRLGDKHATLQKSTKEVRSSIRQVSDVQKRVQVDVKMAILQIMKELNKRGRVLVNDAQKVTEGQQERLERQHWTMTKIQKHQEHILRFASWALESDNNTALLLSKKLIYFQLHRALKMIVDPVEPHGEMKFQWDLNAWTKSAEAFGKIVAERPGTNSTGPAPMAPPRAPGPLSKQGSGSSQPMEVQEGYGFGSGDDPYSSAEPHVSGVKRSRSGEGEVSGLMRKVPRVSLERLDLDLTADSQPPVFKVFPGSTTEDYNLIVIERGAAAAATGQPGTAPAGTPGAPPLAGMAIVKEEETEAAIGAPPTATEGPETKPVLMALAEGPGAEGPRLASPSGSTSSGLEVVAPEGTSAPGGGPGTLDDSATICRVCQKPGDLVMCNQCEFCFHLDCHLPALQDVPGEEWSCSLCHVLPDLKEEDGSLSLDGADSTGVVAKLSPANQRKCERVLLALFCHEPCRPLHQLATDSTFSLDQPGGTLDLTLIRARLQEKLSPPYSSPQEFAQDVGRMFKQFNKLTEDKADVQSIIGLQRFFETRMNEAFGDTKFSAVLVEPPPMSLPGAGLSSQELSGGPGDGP
UniProt O75367: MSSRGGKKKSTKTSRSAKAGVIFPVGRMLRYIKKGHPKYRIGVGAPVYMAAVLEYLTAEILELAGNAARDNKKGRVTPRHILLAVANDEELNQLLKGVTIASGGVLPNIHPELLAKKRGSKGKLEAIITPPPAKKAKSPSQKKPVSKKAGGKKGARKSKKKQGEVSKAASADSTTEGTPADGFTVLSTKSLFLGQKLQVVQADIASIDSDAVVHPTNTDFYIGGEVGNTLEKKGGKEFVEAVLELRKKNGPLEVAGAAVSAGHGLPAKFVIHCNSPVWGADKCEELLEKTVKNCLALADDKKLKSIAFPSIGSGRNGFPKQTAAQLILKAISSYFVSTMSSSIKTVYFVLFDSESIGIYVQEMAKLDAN
UniProt P17096: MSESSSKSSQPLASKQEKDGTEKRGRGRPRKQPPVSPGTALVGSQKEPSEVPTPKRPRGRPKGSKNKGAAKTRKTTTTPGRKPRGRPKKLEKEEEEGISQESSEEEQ
UniProt Q9UQL6: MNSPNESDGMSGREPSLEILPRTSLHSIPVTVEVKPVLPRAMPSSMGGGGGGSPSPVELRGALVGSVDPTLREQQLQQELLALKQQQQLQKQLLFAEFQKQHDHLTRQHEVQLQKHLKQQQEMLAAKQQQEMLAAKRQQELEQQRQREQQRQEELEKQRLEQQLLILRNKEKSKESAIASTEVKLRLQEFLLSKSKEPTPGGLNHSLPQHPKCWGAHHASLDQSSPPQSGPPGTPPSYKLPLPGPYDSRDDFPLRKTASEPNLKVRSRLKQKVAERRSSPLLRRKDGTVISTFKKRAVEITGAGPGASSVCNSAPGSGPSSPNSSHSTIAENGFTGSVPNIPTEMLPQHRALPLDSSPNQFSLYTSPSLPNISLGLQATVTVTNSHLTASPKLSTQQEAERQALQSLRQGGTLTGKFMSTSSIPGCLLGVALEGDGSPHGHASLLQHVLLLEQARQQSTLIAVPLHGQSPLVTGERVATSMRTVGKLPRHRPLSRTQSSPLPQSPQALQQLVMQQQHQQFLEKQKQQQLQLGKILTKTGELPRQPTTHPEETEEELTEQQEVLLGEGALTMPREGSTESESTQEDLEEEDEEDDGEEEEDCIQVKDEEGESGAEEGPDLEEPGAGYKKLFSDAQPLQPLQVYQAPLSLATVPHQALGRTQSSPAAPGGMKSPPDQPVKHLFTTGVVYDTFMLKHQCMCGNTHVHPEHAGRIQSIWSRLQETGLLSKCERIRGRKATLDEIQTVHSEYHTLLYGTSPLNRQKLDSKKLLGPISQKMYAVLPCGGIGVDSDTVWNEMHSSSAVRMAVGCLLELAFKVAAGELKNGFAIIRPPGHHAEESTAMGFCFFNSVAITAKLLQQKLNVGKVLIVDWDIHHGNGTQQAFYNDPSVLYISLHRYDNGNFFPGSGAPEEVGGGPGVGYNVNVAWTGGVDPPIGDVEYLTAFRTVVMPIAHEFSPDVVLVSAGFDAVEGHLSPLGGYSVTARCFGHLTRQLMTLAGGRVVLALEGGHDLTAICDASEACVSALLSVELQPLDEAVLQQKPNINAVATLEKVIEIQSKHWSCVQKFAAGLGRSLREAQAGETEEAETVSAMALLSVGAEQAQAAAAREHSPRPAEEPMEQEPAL
UniProt P06748: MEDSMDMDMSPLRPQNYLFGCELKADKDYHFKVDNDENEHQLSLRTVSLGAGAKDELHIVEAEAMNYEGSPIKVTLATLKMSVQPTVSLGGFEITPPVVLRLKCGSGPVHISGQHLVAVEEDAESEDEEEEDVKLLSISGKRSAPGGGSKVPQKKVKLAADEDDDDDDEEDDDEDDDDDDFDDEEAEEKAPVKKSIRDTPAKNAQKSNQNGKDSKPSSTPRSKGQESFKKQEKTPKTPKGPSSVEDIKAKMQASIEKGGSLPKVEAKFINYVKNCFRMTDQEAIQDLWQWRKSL
UniProt P09874: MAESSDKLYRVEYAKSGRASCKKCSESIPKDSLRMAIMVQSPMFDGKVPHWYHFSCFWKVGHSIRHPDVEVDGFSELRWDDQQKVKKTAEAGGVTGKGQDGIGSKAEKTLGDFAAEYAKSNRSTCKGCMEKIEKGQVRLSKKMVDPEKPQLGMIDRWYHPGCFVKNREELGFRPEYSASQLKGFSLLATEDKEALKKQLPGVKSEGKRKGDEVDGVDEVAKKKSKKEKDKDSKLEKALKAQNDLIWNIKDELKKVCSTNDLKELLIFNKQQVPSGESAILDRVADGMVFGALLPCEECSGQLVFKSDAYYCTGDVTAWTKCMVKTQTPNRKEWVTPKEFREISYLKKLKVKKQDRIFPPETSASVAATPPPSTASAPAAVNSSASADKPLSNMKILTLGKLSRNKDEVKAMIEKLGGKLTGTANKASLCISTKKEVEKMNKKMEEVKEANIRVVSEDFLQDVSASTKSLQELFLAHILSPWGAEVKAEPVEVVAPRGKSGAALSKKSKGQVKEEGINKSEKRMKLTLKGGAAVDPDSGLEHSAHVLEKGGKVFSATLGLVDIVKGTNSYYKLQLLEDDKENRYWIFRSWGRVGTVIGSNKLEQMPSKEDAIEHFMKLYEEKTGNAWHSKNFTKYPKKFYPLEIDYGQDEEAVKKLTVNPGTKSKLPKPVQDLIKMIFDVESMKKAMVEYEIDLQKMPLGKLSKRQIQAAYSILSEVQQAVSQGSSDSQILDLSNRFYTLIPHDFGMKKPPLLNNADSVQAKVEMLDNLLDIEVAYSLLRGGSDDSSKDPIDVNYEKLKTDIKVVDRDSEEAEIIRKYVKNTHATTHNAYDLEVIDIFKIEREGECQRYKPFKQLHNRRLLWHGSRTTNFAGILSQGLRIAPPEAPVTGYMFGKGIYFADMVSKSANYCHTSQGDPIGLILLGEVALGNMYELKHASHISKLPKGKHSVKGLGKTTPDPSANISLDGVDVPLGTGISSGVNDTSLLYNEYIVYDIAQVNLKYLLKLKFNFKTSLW

Molecular target: V5-tagged RE-1 silencing transcription factor (REST) (UniProt Q13127)
Assay: affinity purification with mass spectrometry; V5-tagged REST from transfected HEK293FT cells immunoisolated with anti-V5 antibody on agarose beads; lysis buffer 50 mM Tris-HCl pH 7.4, 150 mM NaCl, 5 mM EDTA, 0.2% TritonX-100, 15 U/ml DNAse I; in-solution digestion, triplicate LC-MS/MS, label-free quantification against control vector

binding	Substance
binds	HnRNP Q (from UniProt O60506 1-623)
binds	Tripartite motif-containing 28 (TRIM28) (from UniProt Q13263 1-835)
binds	core histone macro-H2A.1 (H2AFY) (from UniProt O75367 1-369)
binds	high mobility group protein HMG-I/HMG-Y (HMGA1) (from UniProt P17096 1-107)
binds	histone deacetylase 5 (HDAC5) (from UniProt Q9UQL6 1-1122)
binds	nucleophosmin1 (NPM1) (from UniProt P06748 1-294)
binds	poly[ADP-ribose]polymerase1 (PARP1) (from UniProt P09874 1-1014)

These are yes or no findings as the source states them, for the method shown. In cells and extracts the contact can be indirect. These calls come from enrichment with a bait or labelling near it, and not all partners need be listed. Tags and fused reporters may be left off the sequences shown.
